# Measurements: US9221862B2, “Erythromycin ethylsuccinate crystalline hydrate, preparation and uses thereof” (priority 2011, dated 2015)
# At least one structure is not confirmed: it was looked up by name or label, or the drawing left a doubt.
# Assay: Hygroscopicity test according to CP2005 (RH 70%, 25° C.)
# Type: physicochemical
# Conditions: sampling time 48 h, 5 grams of sample
# Experimental: The erythromycin ethylsuccinate crystalline hydrate according to the present invention was stable during storage. The above sample was sealed in vials and subjected to accelerated stability test at 30° C. using HPLC (C18 reverse phase column, 4.6×250 mm, 5 μm), mobile phase: 10 mmol/L sodium dodecyl sulfate solution containing 0.1% triethylamine (pH adjusted to 3.4 with phosphoric acid)—acetonitrile (55:45), detection wavelength was 205 nm, and the flow rate is 1.0 ml/min, and the change of relevant substances and content was detected. […] According to CP2005, 5 grams of the sample of the present invention was, at 25° C., placed in a relative humidity of 70% in the test for hygroscopicity. It is surprising that erythromycin ethylsuccinate hydrate leads to less hygroscopic weight gain. […] In addition, the deliquescence of anhydride makes it necessary to isolate from air during processing to prevent adhesions, while the hydrate has good sliding properties, thereby improving the operability of the formulation.
smiles,measurement,value
"CCOC(=O)CCC(=O)O[C@H]1[C@H](O[C@@H]2[C@@H](C)[C@H](O[C@H]3C[C@@](C)(OC)[C@@H](O)[C@H](C)O3)[C@@H](C)C(=O)O[C@H](CC)[C@@](C)(O)[C@H](O)[C@@H](C)C(=O)[C@H](C)C[C@@]2(C)O)O[C@H](C)C[C@@H]1N(C)C [Erythromycin Ethylsuccinate Anhydride, erythromycin ethylsuccinate]","hygroscopic weight gain %, compared to 0 h",1.14%
